This passage reports binding results from publication doi:10.1101/2025.08.07.669170.

Protein sequences, listed by entry. Tags and fused reporters are not part of them.
UniProt Q9UN81: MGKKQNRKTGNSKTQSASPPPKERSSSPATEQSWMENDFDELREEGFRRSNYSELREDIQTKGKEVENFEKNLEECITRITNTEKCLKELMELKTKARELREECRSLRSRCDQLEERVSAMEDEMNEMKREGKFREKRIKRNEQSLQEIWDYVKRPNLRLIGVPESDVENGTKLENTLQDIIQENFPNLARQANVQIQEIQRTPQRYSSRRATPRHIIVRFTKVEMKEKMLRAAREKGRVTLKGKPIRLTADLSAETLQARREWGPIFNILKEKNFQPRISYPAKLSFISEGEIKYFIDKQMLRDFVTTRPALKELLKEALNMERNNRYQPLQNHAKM
UniProt Q9NYF8: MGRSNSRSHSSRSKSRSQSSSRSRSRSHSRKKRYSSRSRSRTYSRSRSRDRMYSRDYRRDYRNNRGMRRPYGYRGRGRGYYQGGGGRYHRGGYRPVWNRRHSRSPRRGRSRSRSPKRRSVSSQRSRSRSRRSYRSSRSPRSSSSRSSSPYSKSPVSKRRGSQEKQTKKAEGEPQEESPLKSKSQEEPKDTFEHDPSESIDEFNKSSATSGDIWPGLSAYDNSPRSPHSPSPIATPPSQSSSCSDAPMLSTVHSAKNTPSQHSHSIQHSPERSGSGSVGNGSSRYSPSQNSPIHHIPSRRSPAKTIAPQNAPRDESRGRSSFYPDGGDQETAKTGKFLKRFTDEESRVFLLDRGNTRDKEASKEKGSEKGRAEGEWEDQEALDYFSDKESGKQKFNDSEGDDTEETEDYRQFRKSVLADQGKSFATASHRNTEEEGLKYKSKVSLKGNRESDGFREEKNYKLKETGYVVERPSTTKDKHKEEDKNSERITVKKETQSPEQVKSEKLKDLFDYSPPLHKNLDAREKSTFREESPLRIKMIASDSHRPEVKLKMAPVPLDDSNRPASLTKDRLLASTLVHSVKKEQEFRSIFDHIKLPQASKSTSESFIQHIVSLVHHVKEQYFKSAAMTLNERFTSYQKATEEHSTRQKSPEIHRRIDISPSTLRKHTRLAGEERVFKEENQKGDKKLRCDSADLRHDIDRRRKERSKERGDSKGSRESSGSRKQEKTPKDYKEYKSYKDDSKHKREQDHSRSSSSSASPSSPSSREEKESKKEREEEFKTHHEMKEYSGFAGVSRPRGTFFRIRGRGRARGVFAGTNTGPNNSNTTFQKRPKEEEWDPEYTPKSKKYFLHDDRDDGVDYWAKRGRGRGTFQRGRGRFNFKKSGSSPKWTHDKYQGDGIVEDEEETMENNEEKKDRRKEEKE
UniProt P20700: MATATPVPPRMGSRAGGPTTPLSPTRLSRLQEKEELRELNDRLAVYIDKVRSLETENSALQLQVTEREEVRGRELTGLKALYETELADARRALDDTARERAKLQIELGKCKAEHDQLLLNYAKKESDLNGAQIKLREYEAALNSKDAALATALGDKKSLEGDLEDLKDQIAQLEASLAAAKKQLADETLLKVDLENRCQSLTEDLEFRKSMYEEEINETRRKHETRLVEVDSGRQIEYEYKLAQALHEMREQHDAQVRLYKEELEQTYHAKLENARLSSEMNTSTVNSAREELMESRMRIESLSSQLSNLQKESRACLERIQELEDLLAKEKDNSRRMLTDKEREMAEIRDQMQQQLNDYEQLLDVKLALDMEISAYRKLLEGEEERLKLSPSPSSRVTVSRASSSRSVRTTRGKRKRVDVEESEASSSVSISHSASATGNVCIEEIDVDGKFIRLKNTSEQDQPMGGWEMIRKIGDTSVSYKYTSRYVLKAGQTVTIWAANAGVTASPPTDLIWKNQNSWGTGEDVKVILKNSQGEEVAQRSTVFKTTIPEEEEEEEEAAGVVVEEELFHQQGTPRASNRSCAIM

Like-named read-outs stand apart in the source and are kept apart here. No constants are given. Whether binding was seen depends on the method and setting. Binding seen in cells or lysates may run through a third protein. Some binding calls cover weakened binding; strength is not graded here.

Test [1] deals with LINE-1 ORF1p (human (endogenous in PC3)) (UniProt Q9UN81). As to the kind of experiment: proximity ligation.
The target is the same in test [2]. As to the kind of experiment: proximity ligation. The source holds these as a separate data set.

Regarding BCLAF1 (from UniProt Q9NYF8 1-920), the binding result in test [1] was “binds”.
As to lamin B1 (from UniProt P20700 1-586), the binding result in test [1] is “binds”; in test [2], “binds weakly”.
